In PubChem BioAssay AID493014 (National Center for Advancing Translational Sciences (NCATS), 2011):
This is one part of the list. Further columns of the screen follow, without active or inactive calls. Most of these compounds were active or inconclusive in the main read-out, so they are no random draw. The note in brackets gives the kind of curve behind each potency; many fits are weak.

Test: qHTS Assay to Find Inhibitors of Chronic Active B-Cell Receptor Signaling
Settings: ABC-DLBCL IkBa-CBG/CBR reporter, luminescence ratio (green luciferase fused to IkBa over red control in TMD8 lymphoma cells), 4 h
Summary of the method: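 Cell line TMD8 (human ABC DLBCL), stably expressing tet-inducible CBG68-IkBa fusion and CBR; IMDM/0.5% FBS; cpd up to 46 uM; dox induction, 4 h, 37C/5% CO2; dual luminescence; green/red ratio; MG132 control.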

[1] = measured here: CBR red luminescence, cell number
[2] = measured here: IkBa-CBG green luminescence

SMILES | AC50 [1] | AC50 [2]
Cc1ccc(NCCC(=O)c2cccs2)cc1C | 35.5 µM [falling, single point] | 
O=C(Nc1ccc2c(c1)OCO2)C1CCN(C(=O)CSc2ncnc3ccccc23)CC1 | 22.4 µM [falling, single point] | 
COc1ccc(C(C)=NNc2ccc([N+](=O)[O-])cc2S(=O)(=O)Nc2ccccc2C(=O)O)c(OC)c1 | 23.1 µM [rising, single point] | 
CC(/C=N/NC(=O)c1ccccn1)=C\c1ccco1 | 11.2 µM [falling, partial curve, poor fit] | 
CCOc1ccc(-c2cccc(NS(=O)(=O)c3ccc([N+](=O)[O-])cc3)c2)nn1 | 2.31 µM [falling, single point] | 
O=C(Nc1ccc(NC(=O)c2cccs2)cc1)c1ccc2ccccc2c1 | 11.2 µM [rising, partial curve, poor fit] | 
Cc1ccc(S(=O)(=O)NCC2NCCc3ccccc32)cc1 (configuration not stated) | 0.794 µM [falling, full curve] | 
Cn1c(N)c(C(=O)COC(=O)c2ccccc2C(=O)c2ccc(Cl)cc2)c(=O)n(C)c1=O |  | 1.16 µM [rising, full curve, poor fit]
O=c1c2ccccc2sn1-c1ccccc1 | 23.1 µM [falling, single point] | 25.9 µM [rising, single point]
Cc1nc(-c2ccccc2)cn2c1nc1ccccc12 | 4.11 µM [falling, full curve] | 20.6 µM [rising, partial curve, poor fit]
COc1cccc(C2=NOC(C(=O)Nc3ccc4c(c3)OCO4)C2)c1OC (configuration not stated) | 7.08 µM [falling, partial curve] | 
COCCCNc1ncnc2c1cnn2-c1ccc(F)cc1 | 14.1 µM [falling, partial curve] | 
Cn1cccc1C(=O)C(=O)Nc1ccccc1 | 10 µM [falling, partial curve, poor fit] | 
COc1ccc(N=C2S/C(=C\c3ccc(N4CCOCC4)o3)C(=O)N2CCc2c[nH]c3ccccc23)cc1 | 35.5 µM [rising, single point] | 17.8 µM [falling, single point]
C/C(=N\NC(=O)COc1ccccc1F)c1cc2ccccc2o1 | 0.517 µM [rising, full curve, poor fit] | 
COc1cc(-c2nnc(CSc3nc4ccccc4s3)o2)cc(OC)c1OC | 35.5 µM [falling, single point] | 
Cc1[nH]nc(Nc2ccc(C(C)C)cc2)c1[N+](=O)[O-] | 0.501 µM [rising, full curve, poor fit] | 
CCn1c(=O)c(C(=O)Nc2ncccc2C)c(O)c2ccccc21 | 7.94 µM [falling, partial curve, poor fit] | 
COc1ccc(NC(=O)CC2C(=O)N(c3ccc(OC)cc3)C(=S)N2NC(=O)c2cccc(F)c2)cc1 (configuration not stated) | 5.8 µM [rising, single point] | 
Nc1c(C(=O)NCCN2CCOCC2)c2nc3ccccc3nc2n1CCc1ccccc1 | 35.5 µM [falling, single point] | 

Reprinted from the listing for reference:
SMILES | AC50 [1] | AC50 [2]
Cn1c(N)c(C(=O)COC(=O)c2ccccc2C(=O)c2ccc(Cl)cc2)c(=O)n(C)c1=O |  | 1.16 µM [rising, full curve, poor fit]
O=c1c2ccccc2sn1-c1ccccc1 | 23.1 µM [falling, single point] | 25.9 µM [rising, single point]

Following part

SMILES | AC50 [1] | AC50 [2]
O=c1c2ccccc2[nH]c(=S)n1C1CCCCC1 | 6.31 µM [rising, partial curve, poor fit] | 
CCCn1c(COc2ccc(C(=O)O)cc2)nc2ccccc21 | 2.82 µM [rising, full curve, poor fit] | 
O=S(=O)(NC1CCCC1)c1cccc(-c2nnc(-c3ccccc3)o2)c1 | 11.6 µM [falling, single point] | 
O=C(Oc1cccc(NC(=O)c2ccco2)c1)c1ccc(Br)c(S(=O)(=O)N2CCCCC2)c1 | 11.6 µM [falling, partial curve, poor fit] | 
Cc1ccc(OC(=O)c2cccc(S(=O)(=O)N(C)C)c2)c(-n2nc3ccccc3n2)c1 | 1.64 µM [rising, full curve, poor fit] | 
COc1ccc(NC(=O)COCc2cc(-c3cccs3)on2)cc1 | 2.82 µM [rising, full curve, poor fit] | 
CCOc1ccc(C(C(=O)NC2CCCC2)N(C(=O)c2snc(C(N)=O)c2N)c2cccc(O)c2)cc1 (configuration not stated) | 14.1 µM [rising, partial curve, poor fit] | 
Cc1ccc(C(=O)CSc2nc3ccccc3c(=O)n2N)o1 | 35.5 µM [falling, single point] | 
CC(C)c1ccc(C2(C)NC(=O)N(C(C)C(=O)Nc3ccc(N4CCOCC4)cc3)C2=O)cc1 (configuration not stated) | 3.26 µM [falling, partial curve, poor fit] | 
Cc1ccc(C)c(OCCn2cc(C(=O)O)c3ccccc32)c1 | 7.94 µM [falling, partial curve, poor fit] | 
O=C(Nc1ccc(Cl)cn1)c1ccc2nccnc2c1 | 6.31 µM [falling, partial curve, poor fit] | 
O=C1CC(C(=O)Nc2ccccc2)S/C(=N\N=C\c2ccco2)N1 (configuration not stated) | 0.517 µM [rising, full curve, poor fit] | 
COc1ccc(/C=N/OC(=O)Nc2ccccc2OC)cc1 | 11.2 µM [falling, partial curve] | 
CCC1(CC)Nc2ccccc2C(=O)N1c1ccc(NC(C)=O)cc1 | 12.6 µM [falling, partial curve] | 
O=C(NCc1ccccc1Cl)c1ccc2c(c1)OCO2 | 0.447 µM [falling, full curve, poor fit] | 
O=C(Nc1ccc2c(c1)OCO2)C1CCN(Cc2cnn(-c3ccccc3)c2-n2cccc2)CC1 | 18.4 µM [rising, single point] | 
Clc1ccc(OCc2cc(-c3ccccc3)no2)c(Cl)c1 | 11.6 µM [falling, partial curve, poor fit] | 
O=C(N/N=C/c1ccc(OC(=O)c2cccs2)cc1)c1cccc(F)c1 | 7.31 µM [falling, partial curve, poor fit] | 
Cc1ccc(N2C(=O)C(Cl)=C(NCCO)C2=O)c(C)c1 | 6.51 µM [rising, single point] | 
